Laboratory results as given in EP4212151B1, “STILBENE, FLAVONOL OR CURCUMIN COMPOUNDS FOR USE IN THE TREATMENT OF AGE-RELATED MACULAR DEGENERATION (AMD; ARMD)” (Knepper, Paul A., priority 2022, dated 2023).
Where “and” joins values, the source holds several entries; their conditions need not be identical. Equal values may be shown once. At least one read-out could not be matched to a standard name with certainty.

Assay: Bioavailability calculations: milligram dose and corresponding plasma concentration
Format: in vivo

With O=c1c(O)c(-c2ccc(O)c(O)c2)oc2cc(O)cc(O)c12 [Quercetin, 2-(3,4-dihydroxyphenyl)-3,5,7-trihydroxychromen-4-one;dihydrate] the concentration (dose 240 mg, dihydrate) was 1000 nM, the concentration (dose 240 mg, listed as Q, dihydrate) was 1000 nM and ~1000 nM and the concentration (dose 5,000 mg) was 21000 nM.
